PubChem BioAssay AID686943 – Drosophila RNAi Screening Center | 2013
The deposit covers about 23,000 reagents; shown is an unselected part of those with a known target gene and a result. 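Extra replicates exist only for a retested subset of genes; insulin dose and duration not given; both raised and lowered dpERK matter.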 Not all columns of the deposit are shown. Not stated in the record: the amount of reagent, the time to read-out.

- Purpose: 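Knockdowns that increase or decrease active ERK after insulin receptor stimulation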 (primary screen)
- System: Drosophila S2R+ haemocyte-like cells expressing YFP-tagged ERK (Rolled)
- Reagent: long dsRNA against Drosophila genes
- Treatment: insulin stimulation versus unstimulated cells; dose and duration not given
- Measurement: 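Per-plate z-scores of phospho-ERK immunostaining normalised to YFP-tagged ERK, measured with and without insulin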
- Reading the numbers: replicate 1, z-score of dpERK with insulin: higher = more active ERK per ERK-YFP after insulin

replicate 1, z-score of dpERK with insulin, by gene and reagent
CG6204: DRSC15991 0.12
CG31664: DRSC22084 -2.52
RpS28a (Ribosomal protein S28a): DRSC15064 0.81
Hsp83 (Heat shock protein 83): DRSC08664 1.68
slow (slowdown): DRSC08589 0.34; DRSC08590 0.73
Usp2 (Ubiquitin specific protease 2): DRSC20590 -0.99; DRSC20632 0.24; DRSC20633 0.35
CG5863: DRSC15898 -0.79
COX4 (Cytochrome c oxidase subunit 4): DRSC02091 -0.76
CG17896: DRSC18502 0.03

An excerpt from the list above, as a working copy:
replicate 1, z-score of dpERK with insulin, by gene and reagent
RpS28a (Ribosomal protein S28a): DRSC15064 0.81
Hsp83 (Heat shock protein 83): DRSC08664 1.68
slow (slowdown): DRSC08589 0.34

Continued.
replicate 1, z-score of dpERK with insulin, by gene and reagent
CG17109: DRSC15172 0.8
Nprl3 (Nitrogen permease regulator-like 3): DRSC11044 -0.38
side-III (sidestep III): DRSC12155 0.33; DRSC12263 2.51; DRSC12264 1.1
CG14221: DRSC19578 0.25
Der-2 (Derlin-2): DRSC15021 -0.03
CG31627: DRSC22143 -1.17
heix (heixuedian): DRSC03542 0.46
Atf6: DRSC04743 0.59; DRSC04889 0.8
